PubChem BioAssay AID652243 | Drosophila RNAi Screening Center | 2013
Purpose: 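Fly regulators of androgen-dependent reporter output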 (primary screen). System: Drosophila S2R+ cells. Reagents: long dsRNA against Drosophila genes. Timing: 72 h (48 h, then 24 h hormone). Conditions: synthetic androgen R1881 at 10 nM for 24 h. Measured: 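Per-well raw luminescence of the androgen-driven firefly reporter and of the Renilla control, two replicates each, without normalisation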. Direction: firefly reporter light: higher = more light from androgen-responsive reporter; Renilla control light: higher = more constitutive control signal (cell number, transfection). Call rule: 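Hit when the log firefly-to-Renilla ratio dropped or increased by a fixed fold versus the mean of GFP or LacZ controls across duplicate plates; lowering cut given as 1.5 and as 3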. Calls: active = hit: reporter lowered or raised; inactive = no hit.
The deposit covers about 24,000 reagents; this is a random part of those with a known target gene and a result. Of all reagents, 246 (1%) are marked active. 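Plates not normalised; calls are printed but the firefly/Renilla ratio behind them is not deposited; fold cut for lowering reported inconsistently.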 Raw values vary from plate to plate and are shown uncorrected. Entries without a mark were called inactive. Not stated in the record: the amount of reagent.

CG17994 [SID104184669]: firefly reporter light, replicate 1 = 4.17e5; firefly reporter light, replicate 2 = 4.80e5; Renilla control light, replicate 1 = 3.34e6; Renilla control light, replicate 2 = 3.09e6
CG16700 [SID104199547]: firefly reporter light, replicate 1 = 2.46e5; firefly reporter light, replicate 2 = 2.98e5; Renilla control light, replicate 1 = 3.06e6; Renilla control light, replicate 2 = 3.13e6
CG15425 [SID104180232]: firefly reporter light, replicate 1 = 1.24e5; firefly reporter light, replicate 2 = 1.23e5; Renilla control light, replicate 1 = 7.90e5; Renilla control light, replicate 2 = 9.64e5
CG15425 [SID104203466]: firefly reporter light, replicate 1 = 8.48e5; firefly reporter light, replicate 2 = 9.09e5; Renilla control light, replicate 1 = 1.19e6; Renilla control light, replicate 2 = 1.17e6
CG6650 [SID104190477]: firefly reporter light, replicate 1 = 9.78e5; firefly reporter light, replicate 2 = 7.89e5; Renilla control light, replicate 1 = 1.48e6; Renilla control light, replicate 2 = 9.80e5
Obp8a [SID104197660]: firefly reporter light, replicate 1 = 2.82e5; firefly reporter light, replicate 2 = 2.83e5; Renilla control light, replicate 1 = 2.08e6; Renilla control light, replicate 2 = 2.05e6
Obp8a [SID104208242]: firefly reporter light, replicate 1 = 5.25e5; firefly reporter light, replicate 2 = 3.86e5; Renilla control light, replicate 1 = 1.26e6; Renilla control light, replicate 2 = 1.03e6

As entered above:
Obp8a [SID104197660], firefly reporter light, replicate 1: 2.82e5
Result of CG6650 [SID104190477] in “Renilla control light, replicate 2”: 9.80e5

Further records:
Trc8 [SID104195229]: firefly reporter light, replicate 1 = 1.03e5; firefly reporter light, replicate 2 = 1.27e5; Renilla control light, replicate 1 = 1.13e6; Renilla control light, replicate 2 = 8.27e5
Trc8 [SID104207119]: firefly reporter light, replicate 1 = 5.31e5; firefly reporter light, replicate 2 = 6.76e5; Renilla control light, replicate 1 = 1.19e6; Renilla control light, replicate 2 = 1.70e6
CG34214 [SID104184282]: firefly reporter light, replicate 1 = 6.91e5; firefly reporter light, replicate 2 = 4.46e5; Renilla control light, replicate 1 = 9.77e5; Renilla control light, replicate 2 = 7.22e5
mahj [SID104183845]: firefly reporter light, replicate 1 = 7.62e5; firefly reporter light, replicate 2 = 6.72e5; Renilla control light, replicate 1 = 1.58e6; Renilla control light, replicate 2 = 2.22e6
Dtwd2 [SID104192293]: firefly reporter light, replicate 1 = 40925; firefly reporter light, replicate 2 = 1.02e5; Renilla control light, replicate 1 = 1.11e6; Renilla control light, replicate 2 = 7.01e5
